# Data published in PubChem BioAssay AID1688 (National Center for Advancing Translational Sciences (NCATS), 2009).
# The whole screen tested about 220,000 compounds, of which about 2,400 (1.1%) were called active. The inconclusive results got no clear call from the source; some entries with a clear call stand among them for comparison. The call rests on the fitted dose curve; in most records, active means well fitted inhibition curve with a large enough effect; inconclusive means small, poorly fitted or top-dose-only effect, or effect the other way; inactive means no such curve, though single readings can be large or run the other way. A potency beside an inconclusive call is a rough fit, not a confirmed value.
# Test: qHTS Multiplex Assay to Identify Dual Action Probes in a Cell Model of Huntington: Aggregate Formation (GFP); further: nearly all actives have a fitted effect of over 60% in size
# Settings: PC12 HttQ103-GFP aggregates, Acumen cytometry, 40 h; activity change, negative = inhibition: at 46.1 µM (top of the series) unless noted
# Method in brief: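 Quantitative HTS on tebufenozide-induced (100 nM) PC12 cells stably expressing polyQ103 Huntingtin exon 1–GFP. Reduction of bright GFP aggregates, detected by laser scanning cytometry after lysis, identified actives across the titration.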
# On the % scale 0 is the no-effect control and ±100 the full control effect; potency means the concentration at half of the fitted maximal effect.
Structure (SMILES),Potency,"activity change, negative = inhibition"
N#Cc1cccc(NC(=O)CSc2ccc3c4c(cccc24)C(=O)c2ccccc2-3)c1,active: 7.94 µM,–
COc1cccc(C(=O)/C=C/Nc2cc(C)ccc2O)c1,"inconclusive: 5.01 µM [activator, full curve]",–
COc1ccc(C(=O)NNC(=O)c2ccccc2[N+](=O)[O-])cc1Br,inactive,–
COc1ccc(N(C)S(=O)(=O)c2cccc(C(=O)NCC3CCCO3)c2)cc1 (stereo not drawn),"inconclusive: 6.31 µM [inhibitor, partial curve]",–
COc1ccc(C(=O)NCC(C)(C)SCc2c(C)cc(C)cc2C)cc1,"inconclusive: 35.5 µM [inhibitor, single point]",–
CCOC(=O)CNC(=O)CSc1nnnn1-c1cc(C)ccc1C,inactive,–
CC(C)(C)n1nnnc1C(c1ccc(C(F)(F)F)cc1)N(Cc1ccc(F)cc1)Cc1ccco1 (stereo not drawn),active: 15.8 µM,–
COc1ccccc1Nc1nnc(SCC2CCCCO2)s1 (stereo not drawn),"inconclusive: 35.5 µM [inhibitor, single point]",–
Cc1cc(OCC(=O)N2CCOCC2)ccc1[N+](=O)[O-],–,inactive: 8.07% [at 9.22 µM]
CCOc1ccc(CC(=O)C2C(=O)CC(C)(C)CC2=O)cc1OCC,"inconclusive: 3.98 µM [activator, full curve, poor fit]",–
Cc1onc(-c2c(F)cccc2Cl)c1C(=O)N[C@@H]1C(=O)N2[C@H]1SC(C)(C)[C@H]2C(=O)O,inactive,–
CC(=O)N(C)c1ccc(OCC(O)Cn2c3ccc(Cl)cc3c3cc(Cl)ccc32)cc1 (stereo not drawn),"inconclusive: 22.4 µM [inhibitor, single point]",–
O=C(C1=NN[C@@H]2C(=O)N(c3ccccc3C(F)(F)F)C(=O)[C@H]12)c1ccc2ccccc2n1,inactive,–
O=C(c1ccccc1F)N1CCN(c2ccccc2)CC1,"inconclusive: 8.91 µM [inhibitor, partial curve, poor fit]",–
COc1ccc(-n2nnc3c(SCC(=O)NCc4ccco4)ncnc32)cc1,"inconclusive: 35.5 µM [inhibitor, single point]",–
COc1cc(/C=N/NC(=O)c2ccncc2)ccc1Oc1ccc([N+](=O)[O-])cn1,inactive,–
O=C(/C=C\c1ccccc1)Oc1cccc2cccnc12,"inconclusive: 35.5 µM [inhibitor, single point]",–
Cc1n[nH]c(C)c1CCOc1ccc(C(C)C)cc1,"inconclusive: 12.6 µM [inhibitor, partial curve]",–
Cc1ccc(S(=O)(=O)N2CCN(Cc3nc4sc5c(c4c(=O)[nH]3)CCCC5)CC2)cc1,"inconclusive: 2.82 µM [activator, single point]",–
CCOC(=O)C1(Cc2ccccc2C(F)(F)F)CCN(C(C)CCn2cccn2)CC1 (stereo not drawn),"inconclusive: 5.62 µM [activator, single point]",–
COc1cccc(C2c3[nH]c4ccccc4c3CCN2Cc2cnc(C)s2)c1OC (stereo not drawn),"inconclusive: 10 µM [activator, partial curve]",–
CCn1nnnc1-c1ccc(OC)c(S(=O)(=O)Nc2ccc(OC)cc2)c1,"inconclusive: 0.631 µM [inhibitor, partial curve]",–
COc1cc(C(=O)O)ccc1OCC(=O)N1CCOCC1,inactive,–

Structure (SMILES),Potency,"activity change, negative = inhibition"
O=C(C1=C[C@H](C2CCCCC2)C[C@H](OCCCCO)O1)N1CCN(Cc2ccccc2)CC1,–,inactive: 13.6% [at 9.22 µM]
CC(C)(C)CC(C)(C)NC(=O)Nc1cccc([N+](=O)[O-])c1,"inconclusive: 28.2 µM [inhibitor, single point]",–
CCOc1ccc(C2Oc3nc(SC)nnc3-c3ccccc3N2C(C)=O)cc1OC (stereo not drawn),"inconclusive: 1.41 µM [activator, partial curve]",–
Cc1ccc(S(=O)(=O)/N=C2\C(=O)c3ccccc3C([O-])=C2n2cc[n+](CCC(C)C)c2)cc1,"inconclusive: 35.5 µM [inhibitor, single point]",–
CC(C)CN1CCC(CNC(=O)CCc2nnc(Cc3c[nH]c4ccccc34)o2)CC1,"inconclusive: 5.62 µM [activator, single point]",–
O=C1Nc2ccccc2C1=Nc1ccc(-c2nnc3n2CCCCC3)cc1,"inconclusive: 1.12 µM [inhibitor, full curve, poor fit]",–
COC(=O)c1cc2occc2n1CC(=O)Nc1cc(OC)cc(OC)c1,"inconclusive: 25.1 µM [inhibitor, single point]",–
O=c1c2ccccc2nc2ccc(NCc3ccco3)nn12,"inconclusive: 31.6 µM [inhibitor, single point]",–
CC(=O)Nc1ccc(C(=O)CSc2nc3ccccc3n2CC(=O)N2CCCC2)cc1,"inconclusive: 1.26 µM [activator, single point]",–
O=C1C=CC(O)(c2cc(=O)c3c(O)cc(O)cc3o2)C=C1,"inconclusive: 35.5 µM [inhibitor, single point]",–
O=C(Nc1ccc(-c2csc(Nc3cccc(C(F)(F)F)c3)n2)cc1)c1ccccc1,–,inactive: -12% [at 9.22 µM]
CCc1c(C)n([O-])c2c([n+]1=O)CCC2,inactive,–
COc1ccc(C(C(=O)NC2CCCCC2)N(C(=O)CCl)c2cccc(Cl)c2)cc1 (stereo not drawn),"inconclusive: 35.5 µM [inhibitor, single point]",–
COc1ccc(CC(=O)Nc2ccc3c(c2)CCC3)cc1OC,active: 12.6 µM,–
O=C(C[n+]1ccc(Cc2ccccc2)cc1)Nc1ccc([N+](=O)[O-])cc1Cl,"inconclusive: 0.0011 µM [inhibitor, full curve, poor fit]",–
CCc1cc2c(=O)c(-c3nc4ccccc4[nH]3)coc2c(CN2CCCCC2)c1O,–,inactive: -19.7% [at 9.22 µM]
Cc1ccc(-n2c(O)c(C=Nc3ccccc3-c3n[nH]c(=S)[nH]c3=O)c3ccccc3c2=O)c(C)c1,"inconclusive: 14.1 µM [inhibitor, single point]",–
Clc1ccc(-n2c(SC/C=C/c3ccccc3)nnc2-c2cccnc2)cc1,"inconclusive: 35.5 µM [inhibitor, single point]",–
O=C(NC1CCCCC1)C(c1cccs1)N(C(=O)Cc1c[nH]c2ccccc12)c1ccc(F)cc1 (stereo not drawn),"inconclusive: 35.5 µM [inhibitor, single point]",–
Cc1ccc(-n2c(C)cc(/C=N/Nc3ccc([N+](=O)[O-])cn3)c2C)c(C)c1,"inconclusive: 11.2 µM [inhibitor, single point]",–
O=C(NNC(=S)NC(=O)c1cccnc1)c1ccc(Cl)cc1,"inconclusive: 4.47 µM [inhibitor, full curve]",–
Cc1cc(=O)oc2c1ccc1oc(/C(=N/O)c3ccccc3)c(C)c12,"inconclusive: 12.6 µM [inhibitor, partial curve]",–
O=C(c1ccccc1)N1CCN(c2ccc([N+](=O)[O-])c(NCC3CCCO3)c2)CC1 (stereo not drawn),–,inactive: 2.44% [at 9.22 µM]

# 3 entries picked at random from the list so far:
Structure (SMILES),Potency,"activity change, negative = inhibition"
Cc1cc(=O)oc2c1ccc1oc(/C(=N/O)c3ccccc3)c(C)c12,"inconclusive: 12.6 µM [inhibitor, partial curve]",–
O=C(c1ccccc1)N1CCN(c2ccc([N+](=O)[O-])c(NCC3CCCO3)c2)CC1 (stereo not drawn),–,inactive: 2.44% [at 9.22 µM]
O=C(C1=C[C@H](C2CCCCC2)C[C@H](OCCCCO)O1)N1CCN(Cc2ccccc2)CC1,–,inactive: 13.6% [at 9.22 µM]

# Next compounds follow:

Structure (SMILES),Potency,"activity change, negative = inhibition"
COc1ccc(-c2cc3nc4n(c(=O)c3s2)CCC4)cc1,"inconclusive: 0.562 µM [inhibitor, full curve]",–
NC(=O)C1CCN(c2ccc([N+](=O)[O-])cc2Cl)CC1,inactive,–
CC(C)N(Cc1ccccc1)C(=S)Nc1ccc(OC(F)F)cc1,"inconclusive: 3.55 µM [activator, single point]",–
Cc1[nH]n(-c2ccccc2)c(=O)c1N=Nc1cccc(S(=O)(=O)N2CCOCC2)c1,"inconclusive: 4.47 µM [inhibitor, full curve, poor fit]",–
NC(=O)c1cc2ccc(O)cc2oc1=NCc1ccccc1,"inconclusive: 11.2 µM [inhibitor, single point]",–
Cc1ccc(S(=O)(=O)N/N=C2/CCCCC2C2CCCCC2)cc1[N+](=O)[O-] (stereo not drawn),inactive,–
Cn1c(=O)c2c(ncn2Cc2ccccc2)n(C)c1=O,inactive,–
CC(=O)NC1C(OCCOc2ccc(Cl)cc2Cl)OC(COC(C)=O)C(OC(C)=O)C1OC(C)=O (stereo not drawn),inactive,–
O=S(=O)(O)c1ccc(O)cc1,inactive,–
Cc1n(C)c2cc(Cl)ccc2[n+]1Cc1ccccc1,inactive,–
C=CCn1c(SCc2csc(C)n2)nc2sc3c(c2c1=O)CCCCC3,"inconclusive: 35.5 µM [inhibitor, partial curve, poor fit]",–
Nc1c(C(O)(C(F)(F)F)C(F)(F)F)ccc2ccccc12,inactive,–
COC(=O)c1ccc(NS(=O)(=O)c2ccc(SC)cc2)cc1,"inconclusive: 5.62 µM [activator, single point]",–
O=C(NCc1ccco1)/C(=C\c1cccs1)NC(=O)c1ccco1,inactive,–
CC(=O)NC(c1ccc(C)cc1)c1cc([N+](=O)[O-])c2cccnc2c1O (stereo not drawn),"inconclusive: 4.47 µM [inhibitor, single point]",–
Cc1ccc(OCCCCn2ccnc2C)c(C)c1,"inconclusive: 31.6 µM [inhibitor, single point]",–
COC(=O)c1ccccc1NC(=S)NC(=O)COc1ccccc1Cl,"inconclusive: 5.62 µM [inhibitor, single point]",–
CCCOc1cccc(NC(=O)c2cc(C)oc2C)c1,inactive,–
COc1ccc2cc(C(N)=O)c(=Nc3ccc(C)cc3)oc2c1,"inconclusive: 3.55 µM [inhibitor, partial curve]",–
O=C(NC(Cc1ccccc1)c1nc2ccccc2[nH]1)c1ccc(Cl)c([N+](=O)[O-])c1 (stereo not drawn),active: 7.94 µM,–
Cc1nnc(-c2cccc(Br)c2)c2cn(-c3ccccc3)nc12,"inconclusive: 14.1 µM [inhibitor, single point]",–
Cc1ccc(S(=O)(=O)N(CC(=O)Nc2cccc([N+](=O)[O-])c2)Cc2ccc(Cl)cc2)cc1,"inconclusive: 35.5 µM [inhibitor, single point]",–
